# Results deposited as PubChem BioAssay AID504786 (Drosophila RNAi Screening Center, 2011)
# Screen: 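Positive regulators of HIF-driven reporter output in Drosophila cells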 (primary screen)
# Cells: Drosophila S2 cells with a stable HIF luciferase reporter
# Reagents: long dsRNA against Drosophila genes, about 0.2 µg dsRNA per well of a 384-well plate
# Duration: three days of knock-down, then 20 h of DFO before reading
# Treatment: desferrioxamine (DFO) at 100 µM, an iron chelator that mimics hypoxia, for 20 h
# Detection: 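HIF reporter luminescence in cells given 100 µM DFO for 20 h, using the mouse ldh-a hypoxia-response element, scored as per-plate z-scores; higher means greater loss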
# Reading the numbers: z-score: higher = stronger loss of HIF reporter signal
# In all, the deposit lists about 21,000 reagents; shown is an unselected part of those that have a named target and a result. 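Primary screen; positive scores mean lost reporter signal, so the sign may be inverted from the usual convention.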 A plus sign joins genes that one reagent is predicted to hit.
The first 6 records, to show the layout:
target gene,DRSC id,"z-score, replicate 1","z-score, replicate 2","z-score, replicate 3","z-score, replicate 4"
sona,DRSC04089,0.2,-0.1,,
sona,DRSC04574,1,0.4,,
sona,DRSC04575,-0.2,-0.2,,
Ir68b,DRSC10251,-0.3,-0.4,,
egr,DRSC06233,-0.3,-0.5,,
Lhr,DRSC06759,-0.1,-0.1,,

The list itself, from the first entry:
target gene,DRSC id,"z-score, replicate 1","z-score, replicate 2","z-score, replicate 3","z-score, replicate 4"
sona,DRSC04089,0.2,-0.1,,
sona,DRSC04574,1,0.4,,
sona,DRSC04575,-0.2,-0.2,,
Ir68b,DRSC10251,-0.3,-0.4,,
egr,DRSC06233,-0.3,-0.5,,
Lhr,DRSC06759,-0.1,-0.1,,
Vha14-1,DRSC07571,0.2,0,,
CG32163,DRSC09442,-0.6,0.2,-0.4,-0.3
wdb,DRSC14163,0,0.1,,
Pisd,DRSC15935,-0.3,-0.6,,
CG32808,DRSC17689,-0.2,-0.5,,
CG10365,DRSC14234,-0.3,-0.7,,
CG42518 + MED9,DRSC06917,-0.2,-0.3,,
CG30183,DRSC04450,-0.2,0,,
CG30183,DRSC04472,-0.1,-0.1,,
Ppn,DRSC15328,-0.6,-0.5,,
Sik3,DRSC06505,-0.6,0.6,,
Sik3,DRSC06771,-0.2,-0.8,,
Phm,DRSC04639,-0.2,-0.4,,
LanB2,DRSC11208,-0.2,-0.3,,
eIF3c,DRSC06905,5.2,6.4,,
ND-B15,DRSC06199,0,-0.4,,
Edc3,DRSC10620,-0.4,-1,,
mod,DRSC16999,-0.3,-0.4,,
grau,DRSC04691,-0.5,-0.7,,
Cp15,DRSC11118,-0.4,-0.1,,
CG8745,DRSC11033,1.8,-0.4,,
CG8745,DRSC11034,-0.1,-0.2,,
CG43775,DRSC04206,-0.2,-0.3,,
pie,DRSC03590,-0.3,-0.7,,
CG13737,DRSC10064,0.1,0.1,,
Yif1,DRSC15817,-0.5,-0.3,,
RhoGAP71E,DRSC10232,-0.1,0,,
RhoGAP71E,DRSC10837,1.4,0.4,,
RhoGAP71E,DRSC10838,0,0.2,,
isoQC,DRSC11790,-0.2,-0.4,,
CG5937,DRSC18392,-0.3,0.2,,
Flad2,DRSC02531,-0.1,-0.5,,
CG14995,DRSC08452,3.1,4.6,,
Obp59a,DRSC04160,-0.3,-0.3,,
twz,DRSC04069,-0.3,-0.2,,
CG7332,DRSC20038,-0.3,-0.4,,
rad50,DRSC04523,-0.2,-0.2,,
Sec61alpha,DRSC03256,3.7,2.1,,
MsR1,DRSC08615,0.1,0.6,,
CG33964 + CG13175,DRSC06300,-0.3,0.1,,
CG33964 + CG13175,DRSC06301,-0.1,0.2,,
CG33964 + CG13175,DRSC07184,-0.1,0.5,,
Mcm6,DRSC18680,-0.3,-0.4,,
CG13392,DRSC02262,-0.2,-0.1,,
Ugt37E1,DRSC02248,-0.2,-0.4,,
PGRP-LA,DRSC10327,-0.3,-0.1,,
PGRP-LA,DRSC10414,-0.3,-0.5,,
Oatp33Eb,DRSC02955,-0.2,0,,
hyx,DRSC14462,2,2.7,,
CG42376 + cin,DRSC18752,-0.2,-0.8,,
